Test results as given in patent publication US20210085770A1.
Results are given in words; binding and its absence hold for the method and conditions named. Some entries that bind do so weakly or less than the wild type.

Chains of the proteins cited; added tags and fusions are not shown. Residues count along the entry.
UniProt P02769, residues 25-607: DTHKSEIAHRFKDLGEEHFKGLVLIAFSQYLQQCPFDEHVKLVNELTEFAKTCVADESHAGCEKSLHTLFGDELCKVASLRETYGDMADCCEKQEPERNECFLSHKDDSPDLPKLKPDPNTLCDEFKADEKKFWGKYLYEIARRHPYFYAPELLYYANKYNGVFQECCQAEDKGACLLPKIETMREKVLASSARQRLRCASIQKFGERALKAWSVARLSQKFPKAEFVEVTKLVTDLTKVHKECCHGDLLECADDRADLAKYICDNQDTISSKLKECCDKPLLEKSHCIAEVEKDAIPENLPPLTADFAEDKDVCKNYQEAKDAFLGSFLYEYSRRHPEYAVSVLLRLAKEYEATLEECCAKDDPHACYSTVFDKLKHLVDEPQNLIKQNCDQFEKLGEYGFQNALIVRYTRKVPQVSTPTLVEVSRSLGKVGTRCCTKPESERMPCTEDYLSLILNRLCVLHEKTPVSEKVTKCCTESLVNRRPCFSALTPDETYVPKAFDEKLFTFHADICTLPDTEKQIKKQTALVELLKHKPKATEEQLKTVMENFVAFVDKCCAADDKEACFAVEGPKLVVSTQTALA
UniProt P02872, residues 24-259: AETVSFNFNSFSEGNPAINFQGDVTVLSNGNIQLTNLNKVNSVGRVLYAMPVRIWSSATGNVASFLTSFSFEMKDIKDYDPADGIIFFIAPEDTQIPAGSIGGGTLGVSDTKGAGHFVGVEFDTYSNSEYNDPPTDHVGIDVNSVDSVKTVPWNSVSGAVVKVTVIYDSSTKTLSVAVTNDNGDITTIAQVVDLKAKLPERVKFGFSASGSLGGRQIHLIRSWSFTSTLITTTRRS

Key:
[1] = target: BSA-TF conjugate (bovine serum albumin carrying TF antigen through the thio-linker on amine groups) (bovine) (UniProt P02769); assay: Western blot and ELISA with PNA-hrp
[2] = target: BSA-TF conjugate (bovine serum albumin carrying TF antigen through the thio-linker on amine groups) (bovine) (UniProt P02769); assay: Western blot and ELISA with lectin PNA

Substance: Peanut Agglutinin (PNA), lectin from Arachis hypogaea (from UniProt P02872 24-259)
- binding [1]: binds
- binding [2]: binds
